Assay results as given in PubChem BioAssay (NCATS).
The inconclusive results got no clear call from the source; some entries with a clear call stand among them for comparison. Where the call is inconclusive, the potency comes from a doubtful curve fit. Active and inactive are the calls of the source. Calls follow the shape of the dose curve; as a rule, active = well fitted cell-killing curve with a large enough effect; inconclusive = small, poorly fitted or top-dose-only effect, or effect the other way; inactive = no such curve, though single readings can be large or run the other way.

Legend:
[1] = Quantitative High-Throughput drug screen in 47 multiple myeloma cell lines against the NCATS MIPE library collection: JJN3_DSMZ cell viability assay (AID 1918966; also: nearly all actives have a fitted effect of over 50% in size)
How it was run: (§1)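 We plated 500 myeloma cells per well, pinned in MIPE 4.0 compounds, and incubated for 48 hours at 37C. ATP was then quantified with CellTiter-Glo, with DMSO and media-only wells defining 100% and 0%.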

[2] = Quantitative High-Throughput drug screen in 47 multiple myeloma cell lines against the NCATS MIPE library collection: H1112_PLB cell viability assay (AID 1918967; also: nearly all actives have a fitted effect of over 30% in size); details: H1112 myeloma cells viability, ATP luminescence, 48 h; viability: at 45.8 µM (top of the series)
How it was run: as §1

[3] = Quantitative High-Throughput drug screen in 47 multiple myeloma cell lines against the NCATS MIPE library collection: Karpas25_ECACC cell viability assay (AID 1918968; also: nearly all actives have a fitted effect of over 35% in size); details: Karpas25 myeloma viability, CellTiter-Glo ATP, 48 h; viability (% of control): at 45.8 µM (top of the series)
How it was run: as §1

[4] = Quantitative High-Throughput drug screen in 47 multiple myeloma cell lines against the NCATS MIPE library collection: KMS12BM_JCRB cell viability assay (AID 1918971); also: nearly all actives have a fitted effect of over 35% in size
How it was run: (§2)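 CellTiter-Glo luminescence (ATP) after 48 h compound exposure, 37C/5% CO2; 500 cells/well; MIPE 4.0 approved/investigational drugs pinned in; DMSO = 100%, media only = 0% viability.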

[5] = Quantitative High-Throughput drug screen in 47 multiple myeloma cell lines against the NCATS MIPE library collection: KMS12PE_JCRB cell viability assay (AID 1918972); details: KMS12PE myeloma viability, CellTiter-Glo ATP, 48 h; viability: at 45.8 µM (top of the series); also: nearly all actives have a fitted effect of over 30% in size
How it was run: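 qHTS of the MIPE 4.0 collection: 500 myeloma cells/well, 48 h drug exposure at 37C in 5% CO2, then CellTiter-Glo for 5 min at room temperature before luminescence reading.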

[6] = Quantitative High-Throughput drug screen in 47 multiple myeloma cell lines against the NCATS MIPE library collection: KMS20_JCRB cell viability assay (AID 1918973); details: CellTiter-Glo ATP, 48 h; viability (% of DMSO): at 45.8 µM (top of the series); also: nearly all actives have a fitted effect of over 45% in size
How it was run: as §1

[7] = Quantitative High-Throughput drug screen in 47 multiple myeloma cell lines against the NCATS MIPE library collection: KMS21BM_JCRB cell viability assay (AID 1918974); details: ATP luminescence, 48 h; viability: at 45.8 µM (top of the series) unless noted
How it was run: as §1

[8] = Quantitative High-Throughput drug screen in 47 multiple myeloma cell lines against the NCATS MIPE library collection: KMS26_JCRB cell viability assay (AID 1918975); details: KMS26 myeloma cells viability, CellTiter-Glo ATP, 48 h; viability (% of DMSO): at 45.8 µM (top of the series); also: nearly all actives have a fitted effect of over 45% in size
How it was run: as §2

[9] = Quantitative High-Throughput drug screen in 47 multiple myeloma cell lines against the NCATS MIPE library collection: MMM1_PLB cell viability assay (AID 1918976); also: nearly all actives have a fitted effect of over 35% in size
How it was run: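 Viability after 48 h drug exposure was measured as ATP-dependent luminescence. Cells, 500 per well, sat at 37 °C under 5% CO2; DMSO wells set 100%, media-only wells 0%.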

[10] = Quantitative High-Throughput drug screen in 47 multiple myeloma cell lines against the NCATS MIPE library collection: KMS27_JCRB cell viability assay (AID 1918970); details: KMS27 myeloma cells, CellTiter-Glo ATP viability, 48 h; viability (% of DMSO): at 45.8 µM (top of the series) unless noted; also: nearly all actives have a fitted effect of over 30% in size
How it was run: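 ATP-based viability (CellTiter-Glo luminescence) is measured in cells treated 48 h with approved and investigational drugs at 37 °C. Controls are DMSO-only wells for full viability and media-only wells for none.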
Potency is read from the fitted curve at half-maximal effect.

CN1C(C(=O)Nc2ccccn2)=C(O)c2sc(Cl)cc2S1(=O)=O
inconclusive: Potency [2] 1.18 µM [cytotoxic, full curve] | Potency [4] 23.5 µM [cytotoxic, partial curve, poor fit] | Potency [7] 10.5 µM [rising, partial curve]
inactive: Potency [5]
active: Potency [1] 3.72 µM | Potency [3] 2.64 µM | Potency [6] 2.09 µM

O=C(O)CCC=CCC[C@@H]1[C@H](N2CCCCC2)[C@@H](O)C[C@@H]1OCc1ccc(-c2ccccc2)cc1
inactive: Potency [1] | Potency [2] | Potency [4] | Potency [8] | Potency [9]
inconclusive: Potency [3] 10.5 µM [cytotoxic, partial curve, poor fit] | Potency [7] 37.2 µM [rising, partial curve, poor fit]

CC(C[N+](C)(C)C)OC(N)=O (centres undefined)
inconclusive: Potency [1] 0.001 µM [cytotoxic] | Potency [3] 16.6 µM [cytotoxic, partial curve, poor fit] | Potency [10] 0.469 µM [cytotoxic, full curve, poor fit] | Potency [4] 0.0833 µM [cytotoxic, full curve, poor fit] | Potency [7] 11.8 µM [rising, partial curve] | Potency [9] 11.8 µM [cytotoxic, partial curve, poor fit]
inactive: Potency [2] | Potency [5]

CCc1cc(C(N)=S)ccn1
inconclusive: Potency [1] 0.0053 µM [rising, full curve] | Potency [6] 23.5 µM [rising, single point] | Potency [7] 9.35 µM [rising, partial curve] | viability (% of DMSO) [8] 175% | Potency [9] 0.0083 µM [rising, full curve, poor fit]
inactive: Potency [2] | Potency [3] | Potency [4]

Two compounds picked at random from the list so far:
O=C(O)CCC=CCC[C@@H]1[C@H](N2CCCCC2)[C@@H](O)C[C@@H]1OCc1ccc(-c2ccccc2)cc1
inactive: Potency [1] | Potency [2] | Potency [4] | Potency [8] | Potency [9]
inconclusive: Potency [3] 10.5 µM [cytotoxic, partial curve, poor fit] | Potency [7] 37.2 µM [rising, partial curve, poor fit]

CN1C(C(=O)Nc2ccccn2)=C(O)c2sc(Cl)cc2S1(=O)=O
inconclusive: Potency [2] 1.18 µM [cytotoxic, full curve] | Potency [4] 23.5 µM [cytotoxic, partial curve, poor fit] | Potency [7] 10.5 µM [rising, partial curve]
inactive: Potency [5]
active: Potency [1] 3.72 µM | Potency [3] 2.64 µM | Potency [6] 2.09 µM

Following part.

NC(=O)c1ncn([C@@H]2O[C@H](CO)[C@@H](O)[C@@H]2O)n1
inconclusive: Potency [1] 4.18 µM [rising, partial curve, poor fit] | Potency [4] 11.8 µM [cytotoxic, single point] | Potency [9] 0.0053 µM [cytotoxic, full curve, poor fit]
inactive: Potency [2] | Potency [3] | Potency [6] | Potency [7] | Potency [8]

NC(N)=NC(N)=NCCc1ccccc1
inconclusive: Potency [1] 6.62 µM [cytotoxic, full curve, poor fit] | Potency [2] 16.6 µM [cytotoxic, partial curve] | Potency [10] 14.8 µM [cytotoxic, partial curve] | Potency [5] 14.8 µM [cytotoxic, partial curve] | Potency [6] 2.35 µM [cytotoxic, partial curve, poor fit] | Potency [8] 18.7 µM [cytotoxic, partial curve, poor fit]
active: Potency [4] 10.5 µM | Potency [7] 3.32 µM

CCCCCCCN(CC)CCCC(O)c1ccc(NS(C)(=O)=O)cc1 (centres undefined)
inconclusive: Potency [2] 20.9 µM [cytotoxic, single point] | Potency [3] 18.7 µM [cytotoxic, partial curve] | Potency [6] 37.2 µM [cytotoxic, partial curve, poor fit] | Potency [7] 7.43 µM [rising, partial curve, poor fit] | Potency [8] 0.235 µM [rising, full curve, poor fit] | Potency [9] 37.2 µM [cytotoxic, single point]
inactive: Potency [1] | Potency [4]

CNNCc1ccc(C(=O)NC(C)C)cc1
active: Potency [7] 2.35 µM
inconclusive: Potency [6] 11.8 µM [rising, full curve, poor fit]
inactive: Potency [1] | Potency [2] | Potency [5]

COc1cc(Nc2ncc(F)c(Nc3ccc4c(n3)N(COP(=O)(O)O)C(=O)C(C)(C)O4)n2)cc(OC)c1OC
inconclusive: Potency [1] 20.9 µM [cytotoxic, partial curve, poor fit] | Potency [4] 37.2 µM [cytotoxic, single point] | Potency [5] 6.62 µM [cytotoxic, partial curve] | Potency [8] 0.0105 µM [cytotoxic, full curve, poor fit] | Potency [9] 26.4 µM [cytotoxic, single point]
active: Potency [2] 1.66 µM | Potency [6] 1.66 µM | Potency [7] 0.743 µM

C[C@H](Cn1cnc2c(N)ncnc21)OCP(=O)(O)O
inactive: Potency [2] | Potency [4] | Potency [5] | Potency [6] | Potency [8]
inconclusive: Potency [1] 5.26 µM [rising, partial curve, poor fit] | Potency [9] 0.0296 µM [rising, full curve, poor fit]

OCCn1cc(-c2cnc3nnn(Cc4ccc5ncccc5c4)c3n2)cn1
inactive: Potency [2] | Potency [10]
inconclusive: Potency [1] 9.35 µM [cytotoxic, partial curve, poor fit] | Potency [6] 37.2 µM [rising, single point] | Potency [7] 0.0235 µM [cytotoxic, full curve, poor fit] | Potency [8] 2.96 µM [cytotoxic, full curve, poor fit] | Potency [9] 8.33 µM [cytotoxic, partial curve, poor fit]

Cc1nn(Cc2ccccc2Cl)c(C)c1CN(C)CC(O)COc1ccc(Cl)cc1 (centres undefined)
inconclusive: Potency [1] 20.9 µM [cytotoxic, partial curve, poor fit] | Potency [2] 18.7 µM [cytotoxic, partial curve] | Potency [10] 9.35 µM [cytotoxic, single point] | Potency [7] 33.2 µM [rising, partial curve]
active: Potency [5] 5.9 µM | Potency [6] 11.8 µM | Potency [8] 20.9 µM | Potency [9] 18.7 µM

O=C(O)Cn1nnc(-c2cc(N3CCC(Oc4cc(F)ccc4Br)CC3)no2)n1
inactive: Potency [4] | Potency [5] | Potency [8]
inconclusive: Potency [1] 0.0015 µM [rising, full curve, poor fit] | Potency [3] 33.2 µM [cytotoxic, single point] | Potency [10] 0.0021 µM [cytotoxic, full curve, poor fit] | Potency [6] 0.0264 µM [rising, full curve, poor fit] | Potency [7] 18.7 µM [rising, partial curve, poor fit] | Potency [9] 0.0166 µM [rising, full curve, poor fit]

Nc1nc(N)c2nc(CNc3ccc(C(=O)NC(CCC(=O)O)C(=O)O)cc3)cnc2n1 (centres undefined)
active: Potency [8] 0.0264 µM
inconclusive: Potency [1] 0.0526 µM [cytotoxic, full curve] | Potency [2] 0.0743 µM [cytotoxic, full curve] | Potency [4] 0.0059 µM [rising, full curve, poor fit] | Potency [5] 0.0105 µM [cytotoxic, full curve] | Potency [6] 0.001 µM | Potency [9] 0.0148 µM [rising, full curve]

CN[C@H]1CCc2cc(OC)c(OC)c(OC)c2-c2ccc(OC)c(=O)cc21
active: Potency [1] 0.0187 µM
inconclusive: Potency [2] 0.0118 µM [cytotoxic, full curve] | Potency [10] 0.0148 µM [cytotoxic, full curve] | Potency [5] 0.0332 µM [cytotoxic, full curve] | viability (% of DMSO) [6] 12.3% [cytotoxic]

O=C1NC(=O)C(c2cnc3ccccn23)=C1c1cn2c3c(cccc13)CN(C(=O)N1CCOCC1)CC2
inconclusive: Potency [1] 13.2 µM [cytotoxic, partial curve, poor fit] | Potency [10] 0.0935 µM [rising, full curve, poor fit] | Potency [4] 37.2 µM [cytotoxic, single point] | Potency [9] 16.6 µM [cytotoxic, partial curve, poor fit]
active: Potency [3] 0.001 µM | Potency [5] 0.001 µM

Cc1cnc(CNC(=O)c2c(=O)c3ccc(N4CCCN(C)CC4)nc3n3c2sc2ccccc23)cn1
inconclusive: Potency [1] 16.2 µM [cytotoxic, single point] | Potency [2] 0.0046 µM [cytotoxic, full curve, poor fit] | Potency [5] 7.24 µM [cytotoxic, partial curve, poor fit] | Potency [6] 3.63 µM [cytotoxic, full curve, poor fit] | Potency [7] 9.11 µM [cytotoxic, partial curve, poor fit]
active: Potency [8] 12.9 µM

Cc1cc(CS(=O)(=O)c2ccccc2)cc(OCc2ccc(CN3CCC[C@H]3CO)cc2)c1
active: Potency [3] 16.6 µM | Potency [10] 4.18 µM | Potency [5] 16.6 µM | Potency [7] 1.18 µM | Potency [9] 13.2 µM
inconclusive: Potency [1] 18.7 µM [cytotoxic, partial curve, poor fit] | Potency [6] 20.9 µM [cytotoxic, partial curve, poor fit]
